From the supplement of paper PMC10849652
The other results are listed elsewhere or left out. Residues, ends and D or L forms follow the SMILES beside them. *: point of attachment. Cbz = O=C(OCc1ccccc1)*

Amino acid sequences for entries named in this document (tags omitted). A change or cut given only in a name is not applied to a line headed by its entry.
UniProt Q8IYS1: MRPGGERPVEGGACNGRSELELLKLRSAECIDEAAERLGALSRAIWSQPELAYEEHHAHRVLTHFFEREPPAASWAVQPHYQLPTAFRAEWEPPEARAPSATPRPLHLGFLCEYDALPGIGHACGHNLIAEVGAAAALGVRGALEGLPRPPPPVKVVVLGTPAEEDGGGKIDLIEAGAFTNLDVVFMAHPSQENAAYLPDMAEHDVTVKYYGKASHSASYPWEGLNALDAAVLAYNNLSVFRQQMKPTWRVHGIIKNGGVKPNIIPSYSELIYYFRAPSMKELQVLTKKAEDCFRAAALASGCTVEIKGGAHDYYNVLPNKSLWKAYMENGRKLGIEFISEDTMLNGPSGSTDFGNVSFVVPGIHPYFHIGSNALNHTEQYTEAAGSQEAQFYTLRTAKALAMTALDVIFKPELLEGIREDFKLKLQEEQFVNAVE
UniProt O60664: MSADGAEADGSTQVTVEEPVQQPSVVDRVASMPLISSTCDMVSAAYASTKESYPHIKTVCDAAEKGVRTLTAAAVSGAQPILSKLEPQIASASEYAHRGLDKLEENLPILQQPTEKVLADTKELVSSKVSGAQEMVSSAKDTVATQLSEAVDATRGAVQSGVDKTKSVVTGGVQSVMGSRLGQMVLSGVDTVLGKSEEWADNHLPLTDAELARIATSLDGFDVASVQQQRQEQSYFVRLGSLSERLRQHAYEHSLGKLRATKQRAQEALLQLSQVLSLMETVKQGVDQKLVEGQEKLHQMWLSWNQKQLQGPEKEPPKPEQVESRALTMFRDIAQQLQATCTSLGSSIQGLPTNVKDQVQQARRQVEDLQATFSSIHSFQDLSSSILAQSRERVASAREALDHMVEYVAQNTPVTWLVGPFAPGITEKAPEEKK
UniProt Q9UKY4: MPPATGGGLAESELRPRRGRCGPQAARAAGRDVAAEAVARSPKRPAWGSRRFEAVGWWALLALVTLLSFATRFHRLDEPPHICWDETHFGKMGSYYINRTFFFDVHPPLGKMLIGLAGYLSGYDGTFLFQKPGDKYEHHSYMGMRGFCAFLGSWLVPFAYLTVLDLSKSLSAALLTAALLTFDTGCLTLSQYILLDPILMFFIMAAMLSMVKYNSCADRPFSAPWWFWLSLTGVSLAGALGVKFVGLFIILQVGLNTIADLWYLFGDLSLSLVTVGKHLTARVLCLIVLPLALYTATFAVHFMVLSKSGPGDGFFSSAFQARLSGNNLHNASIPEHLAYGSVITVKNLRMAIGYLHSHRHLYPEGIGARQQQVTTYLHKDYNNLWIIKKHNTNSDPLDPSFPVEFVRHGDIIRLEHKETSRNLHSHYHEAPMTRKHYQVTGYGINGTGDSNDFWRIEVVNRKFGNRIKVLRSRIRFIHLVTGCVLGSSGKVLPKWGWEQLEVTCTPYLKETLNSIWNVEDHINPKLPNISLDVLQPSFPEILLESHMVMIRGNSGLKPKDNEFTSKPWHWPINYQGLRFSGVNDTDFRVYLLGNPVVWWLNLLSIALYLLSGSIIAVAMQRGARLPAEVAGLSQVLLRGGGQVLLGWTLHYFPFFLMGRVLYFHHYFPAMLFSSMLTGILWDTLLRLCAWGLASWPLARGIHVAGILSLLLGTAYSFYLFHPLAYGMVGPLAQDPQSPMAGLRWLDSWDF
UniProt O43157, whole entry, looked up: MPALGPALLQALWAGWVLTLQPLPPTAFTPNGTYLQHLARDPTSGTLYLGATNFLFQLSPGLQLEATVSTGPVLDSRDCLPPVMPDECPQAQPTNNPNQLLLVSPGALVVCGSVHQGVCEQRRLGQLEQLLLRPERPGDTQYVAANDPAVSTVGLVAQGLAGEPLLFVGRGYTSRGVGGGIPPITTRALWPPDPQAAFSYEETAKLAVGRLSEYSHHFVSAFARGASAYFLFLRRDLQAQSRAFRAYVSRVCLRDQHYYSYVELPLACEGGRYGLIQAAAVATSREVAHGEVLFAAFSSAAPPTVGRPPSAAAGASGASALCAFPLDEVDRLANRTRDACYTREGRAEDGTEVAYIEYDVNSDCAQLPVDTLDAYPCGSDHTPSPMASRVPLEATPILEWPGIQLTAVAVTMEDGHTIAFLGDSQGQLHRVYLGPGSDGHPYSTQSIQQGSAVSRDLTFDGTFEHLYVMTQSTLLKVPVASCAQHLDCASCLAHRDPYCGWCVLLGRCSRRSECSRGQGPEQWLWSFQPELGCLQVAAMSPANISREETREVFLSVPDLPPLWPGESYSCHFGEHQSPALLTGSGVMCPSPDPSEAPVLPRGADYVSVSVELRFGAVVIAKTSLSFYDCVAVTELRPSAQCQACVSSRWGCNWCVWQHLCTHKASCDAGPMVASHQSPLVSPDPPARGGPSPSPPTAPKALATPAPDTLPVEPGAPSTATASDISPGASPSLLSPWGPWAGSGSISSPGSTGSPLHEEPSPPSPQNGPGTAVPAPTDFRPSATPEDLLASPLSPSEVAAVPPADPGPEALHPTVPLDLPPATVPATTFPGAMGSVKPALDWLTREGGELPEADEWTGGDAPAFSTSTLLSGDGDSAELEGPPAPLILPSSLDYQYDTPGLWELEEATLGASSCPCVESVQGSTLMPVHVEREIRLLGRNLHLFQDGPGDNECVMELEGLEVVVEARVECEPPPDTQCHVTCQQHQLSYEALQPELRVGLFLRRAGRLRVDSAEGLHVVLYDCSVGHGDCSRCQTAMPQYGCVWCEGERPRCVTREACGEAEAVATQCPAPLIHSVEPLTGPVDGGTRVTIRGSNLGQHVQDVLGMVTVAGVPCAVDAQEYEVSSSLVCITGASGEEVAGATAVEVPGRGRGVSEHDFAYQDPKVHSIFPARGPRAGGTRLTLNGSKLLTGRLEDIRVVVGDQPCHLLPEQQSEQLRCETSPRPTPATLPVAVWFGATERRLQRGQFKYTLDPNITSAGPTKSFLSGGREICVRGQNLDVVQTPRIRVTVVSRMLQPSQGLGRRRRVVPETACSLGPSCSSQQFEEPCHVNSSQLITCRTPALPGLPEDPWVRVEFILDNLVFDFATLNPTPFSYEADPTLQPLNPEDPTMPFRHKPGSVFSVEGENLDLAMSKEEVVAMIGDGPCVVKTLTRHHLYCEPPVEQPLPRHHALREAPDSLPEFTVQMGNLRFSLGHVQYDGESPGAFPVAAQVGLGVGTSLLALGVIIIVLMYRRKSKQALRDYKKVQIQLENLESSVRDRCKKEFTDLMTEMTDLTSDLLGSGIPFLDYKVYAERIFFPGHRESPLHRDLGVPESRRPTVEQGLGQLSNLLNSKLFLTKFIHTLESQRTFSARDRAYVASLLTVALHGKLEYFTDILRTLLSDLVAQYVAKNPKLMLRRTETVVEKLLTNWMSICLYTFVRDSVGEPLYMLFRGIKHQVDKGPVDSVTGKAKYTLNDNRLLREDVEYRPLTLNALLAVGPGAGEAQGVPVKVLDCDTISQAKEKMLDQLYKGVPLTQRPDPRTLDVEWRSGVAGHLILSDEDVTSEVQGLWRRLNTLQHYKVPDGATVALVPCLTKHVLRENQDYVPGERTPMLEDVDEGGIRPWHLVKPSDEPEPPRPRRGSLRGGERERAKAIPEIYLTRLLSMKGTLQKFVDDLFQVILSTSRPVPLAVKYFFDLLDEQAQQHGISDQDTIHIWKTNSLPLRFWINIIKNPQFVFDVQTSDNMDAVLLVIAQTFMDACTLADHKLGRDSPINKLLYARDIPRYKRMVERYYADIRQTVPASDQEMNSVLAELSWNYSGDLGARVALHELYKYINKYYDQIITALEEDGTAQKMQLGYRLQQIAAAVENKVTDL
UniProt Q9BT43: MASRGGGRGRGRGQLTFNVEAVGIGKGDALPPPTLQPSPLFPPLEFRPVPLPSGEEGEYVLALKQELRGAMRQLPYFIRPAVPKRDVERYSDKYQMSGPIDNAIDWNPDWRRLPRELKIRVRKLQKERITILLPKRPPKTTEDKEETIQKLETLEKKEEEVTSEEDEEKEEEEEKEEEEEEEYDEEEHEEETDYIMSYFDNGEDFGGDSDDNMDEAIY
UniProt P62937, whole entry, looked up: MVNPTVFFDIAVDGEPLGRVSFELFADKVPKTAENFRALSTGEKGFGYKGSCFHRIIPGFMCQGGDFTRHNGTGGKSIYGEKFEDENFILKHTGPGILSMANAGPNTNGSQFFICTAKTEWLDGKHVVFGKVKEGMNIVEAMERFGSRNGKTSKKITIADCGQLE
UniProt Q13427: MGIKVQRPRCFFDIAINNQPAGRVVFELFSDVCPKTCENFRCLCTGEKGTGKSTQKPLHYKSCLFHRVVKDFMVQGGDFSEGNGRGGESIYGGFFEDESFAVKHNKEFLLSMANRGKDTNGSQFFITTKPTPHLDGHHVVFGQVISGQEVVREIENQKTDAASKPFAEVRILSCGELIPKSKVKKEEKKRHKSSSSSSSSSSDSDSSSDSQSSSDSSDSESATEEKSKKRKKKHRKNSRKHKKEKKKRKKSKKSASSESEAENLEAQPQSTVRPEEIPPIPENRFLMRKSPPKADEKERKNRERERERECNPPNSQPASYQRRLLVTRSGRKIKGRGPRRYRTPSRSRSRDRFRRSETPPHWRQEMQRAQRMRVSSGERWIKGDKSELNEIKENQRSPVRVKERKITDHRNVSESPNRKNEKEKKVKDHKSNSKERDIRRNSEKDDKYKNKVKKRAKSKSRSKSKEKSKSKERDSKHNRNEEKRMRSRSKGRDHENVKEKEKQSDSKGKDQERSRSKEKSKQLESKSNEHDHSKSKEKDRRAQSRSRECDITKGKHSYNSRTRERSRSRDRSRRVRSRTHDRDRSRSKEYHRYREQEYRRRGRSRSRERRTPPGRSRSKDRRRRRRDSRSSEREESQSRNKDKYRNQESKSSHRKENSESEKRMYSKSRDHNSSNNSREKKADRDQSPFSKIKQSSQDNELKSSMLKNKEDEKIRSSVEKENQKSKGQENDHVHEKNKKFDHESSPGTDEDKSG
UniProt Q68D20: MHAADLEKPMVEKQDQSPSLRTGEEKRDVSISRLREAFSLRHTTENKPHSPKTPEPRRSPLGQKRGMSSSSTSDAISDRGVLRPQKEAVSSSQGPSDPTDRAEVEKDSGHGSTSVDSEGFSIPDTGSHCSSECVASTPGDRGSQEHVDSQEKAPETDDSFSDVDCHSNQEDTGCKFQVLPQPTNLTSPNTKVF
UniProt O75688: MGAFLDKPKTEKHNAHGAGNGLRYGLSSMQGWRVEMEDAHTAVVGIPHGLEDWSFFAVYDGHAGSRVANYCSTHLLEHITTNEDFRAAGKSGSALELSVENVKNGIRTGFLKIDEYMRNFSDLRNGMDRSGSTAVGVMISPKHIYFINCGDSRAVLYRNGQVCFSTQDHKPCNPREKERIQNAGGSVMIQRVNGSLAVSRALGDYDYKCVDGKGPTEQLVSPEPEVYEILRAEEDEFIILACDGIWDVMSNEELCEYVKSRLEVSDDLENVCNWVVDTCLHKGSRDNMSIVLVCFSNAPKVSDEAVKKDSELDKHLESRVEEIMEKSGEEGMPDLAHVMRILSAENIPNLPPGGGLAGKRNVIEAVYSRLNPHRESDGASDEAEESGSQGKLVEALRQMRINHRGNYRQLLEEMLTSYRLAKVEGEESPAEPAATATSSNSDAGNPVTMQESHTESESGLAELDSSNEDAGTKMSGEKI
UniProt P55058, whole entry, looked up: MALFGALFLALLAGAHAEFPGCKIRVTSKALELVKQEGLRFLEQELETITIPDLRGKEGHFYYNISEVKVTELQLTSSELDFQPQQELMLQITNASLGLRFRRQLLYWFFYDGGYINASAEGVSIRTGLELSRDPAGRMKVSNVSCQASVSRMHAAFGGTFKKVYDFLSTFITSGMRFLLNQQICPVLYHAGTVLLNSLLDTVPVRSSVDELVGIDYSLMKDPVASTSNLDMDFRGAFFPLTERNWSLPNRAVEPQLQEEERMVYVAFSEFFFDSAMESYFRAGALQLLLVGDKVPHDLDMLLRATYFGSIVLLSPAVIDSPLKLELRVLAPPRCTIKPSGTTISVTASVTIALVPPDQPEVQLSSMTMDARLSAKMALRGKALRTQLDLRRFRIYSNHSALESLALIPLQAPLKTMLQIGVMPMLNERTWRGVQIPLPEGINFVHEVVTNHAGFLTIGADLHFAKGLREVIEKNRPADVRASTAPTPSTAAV

Columns and labels:
Test in all cases: log2 fold change, soluble protein after heating vs DMSO (PISA); higher = thermal stabilisation; K562 cells, 10 uM, 30 min; active = over 0.2 and 3.5 SD of the protein, either way, in both replicates (recomputed)
erlotinib = compound: C#Cc1cccc(Nc2ncnc3cc(OCCOC)c(OCCOC)cc23)c1 [erlotinib]
Method in brief: (§1)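 Aliquots of K562 cells (2×10^6 cells/mL) treated with 10 μM compound for 30 min were heated for 3 min over 48°C-58°C. After pooling and extraction in PBS with 0.5% NP-40 at 4°C, soluble protein from a 21,000xg, 90 min spin was quantified by TMTpro 16plex LC-MS/MS with channel sums equalised. Thermal stability is expressed against control samples, from duplicates, as a log2 fold change.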

[1] = compound: C1=CC(=CC=C1C2=NC3=C(N2)C=C(C=C3)C(=O)N)OC4=CC=C(C=C4)Cl
Method in brief: as §1

[2] = compound: C1=CC=C(C=C1)C2=NC(=C(N2)C3=CC=NC=C3)C4=CC(=C(C=C4)Cl)O
Method in brief: as §1

[3] = compound: C1CCN(C1)C(=O)NC2=CC=CC(=C2)NC3=NC=C(C(=N3)NCCC4=CN=CN4)Br
Method in brief: as §1

[4] = compound: C1CN(CCC1(CC2=CC=C(C=C2)Cl)N)C3=NC=NC4=C3C=CN4
Method in brief: as §1

ralimetinib = compound: CC(C)(C)Cn1c(N)nc2ccc(-c3[nH]c(C(C)(C)C)nc3-c3ccc(F)cc3)nc21 [ralimetinib]
Method in brief: as §1

[5] = compound: CC(C)C1=C2N=C(C=C(N2N=C1)NCC3=CC=CC=C3)NCCCCCCN
Method in brief: as §1

[6] = compound: CC(C)C[C@@H](C=O)NC(=O)[C@H](CC(C)C)NC(=O)[C@H](CC(C)C)NC(=O)OCc1ccccc1
Method in brief: as §1

[7] = compound: CC1=C(C2=C(C=C1)C(=O)C3=CC=CC=C3N2CCCN)C
Method in brief: as §1

[8] = compound: C/C(=N\NC(=O)C1=CC(=CC=C1)S(=O)(=O)N2CCOCC2)/C3=C(C=CC(=C3)Cl)O
Method in brief: as §1

[9] = compound: C1=CC(=C(C=C1Cl)C2=NC3=NC=CN=C3C(=N2)NC4=CC=NC=C4)F
Method in brief: as §1

[10] = compound: C1=CC2=C(C=CC(=C2)/C=C\3/C(=O)NC(=NCC4=CC=CS4)S3)N=C1
Method in brief: as §1

[11] = compound: C1=CC2=NC=CN=C2C=C1/C=C/3\C(=O)NC(=O)S3
Method in brief: as §1

[12] = compound: C1=CC=C2C(=C1)C3=NNC4=CC=CC(=C43)C2=O
Method in brief: as §1

ibrutinib = compound: C=CC(=O)N1CCC[C@@H](n2nc(-c3ccc(Oc4ccccc4)cc3)c3c(N)ncnc32)C1 [ibrutinib]
Method in brief: as §1

[13] = compound: CC(=O)c1cnc2ccc(-c3cc(Cl)c(O)c(Cl)c3)nc2c1N[C@H]1CC[C@H](CN(C)C)CC1
Method in brief: as §1

[14] = compound: CC(C)(O)CC(=O)NCCn1ccc2ncnc(Nc3ccc(Oc4cccc(C(F)(F)F)c4)c(Cl)c3)c21
Method in brief: as §1

IRAK-1-4 Inhibitor I = compound: C1COCCN1CCN2C3=CC=CC=C3N=C2NC(=O)C4=CC(=CC=C4)[N+](=O)[O-] [IRAK-1-4 Inhibitor I]
Method in brief: as §1

pinometostat = compound: CC(C)N(C[C@H]1O[C@@H](n2cnc3c(N)ncnc32)[C@H](O)[C@@H]1O)[C@H]1C[C@@H](CCc2nc3cc(C(C)(C)C)ccc3[nH]2)C1 [pinometostat]
Method in brief: as §1

[15] = compound: CC1=C(C(CC(=O)N1)C2=CC=C(C=C2)C(F)(F)F)C(=O)NC3=C(C=C4C(=C3)C=NN4)F
Method in brief: as §1

Measured: log2 fold change

PM20D2 (UniProt Q8IYS1)
inactive: erlotinib 0.08 | [1] 0.12 | [2] 0.056 | [3] -0.054 | [4] 0.269 | ralimetinib 0.03 | [5] -0.277 | [6] 0.024 | [7] 0.168

PLIN3 isoform 2 (UniProt O60664)
inactive: [8] -0.371 | [9] -0.357 | [10] 0.189 | [11] -0.193 | [12] -0.149 | ibrutinib 0.175 | [13] -0.258 | [14] 0.018

PLEKHJ1 (UniProt Q9NW61)
inactive: [9] 0.079 | [2] -0.008 | ralimetinib 0.009 | [14] 0.25 | [6] 0.165

PNKP (UniProt Q96T60)
inactive: [8] -0.067 | [10] 0.147 | [2] -0.03 | [12] -0.102 | [3] -0.225 | [4] 0.101 | IRAK-1-4 Inhibitor I -0.045 | [13] -0.051 | ralimetinib -0.066 | [6] 0.088 | pinometostat 0.043 | [7] 0.634

POMT2 (UniProt Q9UKY4)
inactive: [8] -0.097 | [10] 0.07 | [11] -0.083 | [2] 0.103 | [12] -0.055 | [3] 0.112 | [4] 0.028 | IRAK-1-4 Inhibitor I 0.003 | ibrutinib 0.087 | [13] -0.029 | ralimetinib -0.027 | [6] 0.044 | pinometostat 0.004 | [7] -0.105

POLG, A0A3B3IS91
inactive: erlotinib -0.087 | [1] 0.168 | [3] -0.107 | [4] 0.05 | [5] -0.212 | [7] 0.144

PLXNB1 (UniProt O43157)
inactive: [8] 0.034 | [9] 0.062 | [10] 0.056 | [12] -0.064 | [13] 0.03 | [14] 0.014

POLR3GL (UniProt Q9BT43)
inactive: [11] 0.152 | ibrutinib -0.079

PPIP5K2 (UniProt H0Y9S9)
inactive: [9] 0.07 | [11] -0.068 | [2] -0.059 | [3] -0.275 | [4] 0.169 | IRAK-1-4 Inhibitor I 0.131 | ibrutinib -0.077 | ralimetinib 0.034 | [14] -0.063 | [6] 0.346 | pinometostat -0.208 | [15] 0.121 | [7] 0.116

PLXNA3 (UniProt P51805)
inactive: [8] -0.403 | [9] 0.158 | [10] 0.019 | [11] -0.032 | [12] 0.242 | [3] -0.041 | [4] 0.02 | IRAK-1-4 Inhibitor I -0.241 | ibrutinib 0.144 | [13] 0.072 | [14] -0.142 | pinometostat 0.101 | [7] -0.007

PORCN (UniProt Q9H237)
inactive: erlotinib -0.015 | [1] 0.182 | [2] 0.405 | ralimetinib 0.03 | [5] -0.054 | [6] -0.283

PLS3 (UniProt H7C4N2)
inactive: [9] -0.366 | IRAK-1-4 Inhibitor I -0.001 | [14] 0.066 | pinometostat 0.319

POF1B isoform 1 (UniProt Q8WVV4)
inactive: [11] -0.451 | [3] -0.081 | [4] -0.196 | ibrutinib 0.09 | [15] -0.063 | [7] 1.46

PLOD2 isoform 2 (UniProt O00469)
inactive: IRAK-1-4 Inhibitor I -0.302 | pinometostat 0.05

PPHLN1 (UniProt Q8NEY8)
inactive: erlotinib -0.06 | [1] 0.044 | [11] 0.065 | [2] -0.092 | IRAK-1-4 Inhibitor I -0.003 | ibrutinib 0.093 | ralimetinib 0.033 | [5] 0.123 | [6] 0.174 | pinometostat -0.018

PPIA isoform 2 (UniProt P62937)
inactive: [8] -0.044 | [9] 0.154 | [10] 0.116 | [11] 0.136 | [2] -0.174 | [12] 0.048 | [3] 0.119 | [4] 0.082 | ibrutinib -0.171 | [13] -0.095 | ralimetinib -0.078 | [14] 0.057 | [6] -0.081 | [15] 0.191 | [7] 0.056

POLB (UniProt P06746)
inactive: erlotinib -0.236 | [9] -0.186 | [1] 0.094 | [2] 0 | [3] -0.118 | [4] 0.002 | ralimetinib 0.14 | [14] -0.222 | [5] 0.091 | [6] 0.143 | [7] 0.175

POLR1E isoform 1 (UniProt Q9GZS1)
inactive: [8] 0.118 | [10] 0.096 | [2] -0.159 | [12] -0.168 | [13] -0.224 | ralimetinib 0.006 | [6] 0.21

PPIG (UniProt Q13427)
inactive: [11] -0.259 | [2] 0.062 | IRAK-1-4 Inhibitor I -0.386 | ibrutinib 0.145 | ralimetinib 0.064 | [6] 0.099 | pinometostat 0.182

POLE (UniProt Q07864)
inactive: [11] -0.048 | [2] 0.051 | ibrutinib -0.019 | ralimetinib 0.152 | [6] 0.507

POLE2 (UniProt P56282)
inactive: [2] -0.132 | IRAK-1-4 Inhibitor I -0.019 | ralimetinib 0.238 | [6] -0.075 | pinometostat 0.059

Retrieved one by one from the entries so far (2):
PPIG (UniProt Q13427)
inactive: [11] -0.259 | [2] 0.062 | IRAK-1-4 Inhibitor I -0.386 | ibrutinib 0.145 | ralimetinib 0.064 | [6] 0.099 | pinometostat 0.182

POLB (UniProt P06746)
inactive: erlotinib -0.236 | [9] -0.186 | [1] 0.094 | [2] 0 | [3] -0.118 | [4] 0.002 | ralimetinib 0.14 | [14] -0.222 | [5] 0.091 | [6] 0.143 | [7] 0.175

Carrying on:

POLRMT (UniProt O00411)
inactive: [9] -0.026 | IRAK-1-4 Inhibitor I -0.046 | [14] 0.063 | pinometostat 0.034

PMS2CL (UniProt Q68D20)
inactive: [9] 0.094 | [2] -0.023 | ralimetinib -0.21 | [14] -0.042 | [6] -0.258

PLPPR3 isoform 3 (UniProt Q6T4P5)
inactive: [9] -0.02 | [2] -0.081 | ralimetinib -0.001 | [14] -0.078 | [6] 0.203

PPM1B isoform 2 (UniProt O75688)
inactive: [11] -0.067 | ibrutinib 0.017

PLTP (UniProt P55058)
inactive: erlotinib -0.023 | [9] 0.049 | [1] 0.021 | IRAK-1-4 Inhibitor I 0.213 | [14] 0.04 | [5] 0.129 | pinometostat 0.115 | [15] -0.059
